Source: article PMC6925144, “A prospective compound screening contest identified broader inhibitors for Sirtuin 1” (Scientific Reports, 2019)
Whole data set: some 3,200 compounds, median “TSA(without NAD+) / Primary screening (TSA) / delta Tm (K)” near -0.07, cut for the highest 2% near 0.37. This is one part of the list.

The chains behind the UniProt entries cited, without tags or fusion partners. Residues count along the entry.
UniProt Q96EB6, 2-747 limits assumed: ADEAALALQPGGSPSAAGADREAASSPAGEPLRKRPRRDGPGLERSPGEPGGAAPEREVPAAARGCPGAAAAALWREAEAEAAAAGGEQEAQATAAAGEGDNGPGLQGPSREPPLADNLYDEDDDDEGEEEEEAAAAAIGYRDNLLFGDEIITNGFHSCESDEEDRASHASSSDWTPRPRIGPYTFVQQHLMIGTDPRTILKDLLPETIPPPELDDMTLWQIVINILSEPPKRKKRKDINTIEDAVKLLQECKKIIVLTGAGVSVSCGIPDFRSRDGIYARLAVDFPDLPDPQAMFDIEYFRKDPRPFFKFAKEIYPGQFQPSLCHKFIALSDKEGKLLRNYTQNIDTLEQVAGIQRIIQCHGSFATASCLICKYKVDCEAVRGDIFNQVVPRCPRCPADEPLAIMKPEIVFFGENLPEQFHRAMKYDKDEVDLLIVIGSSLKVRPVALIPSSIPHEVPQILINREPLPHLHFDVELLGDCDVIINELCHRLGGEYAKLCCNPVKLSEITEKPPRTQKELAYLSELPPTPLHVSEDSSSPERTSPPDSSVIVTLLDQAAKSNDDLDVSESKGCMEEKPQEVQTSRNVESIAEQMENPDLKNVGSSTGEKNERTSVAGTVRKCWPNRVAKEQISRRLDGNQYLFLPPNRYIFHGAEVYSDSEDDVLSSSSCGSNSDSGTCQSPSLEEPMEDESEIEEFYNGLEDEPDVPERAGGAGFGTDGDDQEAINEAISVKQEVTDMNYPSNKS

Molecular target: NAD-dependent deacetylase Sirtuin 1 (human, UniProt Q96EB6)
Test: primary screen, delta tm
Design: single well (n = 1)
Conditions: 10 µM
Procedure: A total of 3,192 compounds extracted from the proposed lists were first screened by thermal shift assay (TSA), which determined a melting temperature shift (ΔTm) of Sirtuin 1 upon the addition of a test compound at a concentration of 10 µM (n = 1) with primary hit criteria of ΔTm > 0.45 K or ΔTm < −1.5 K. Primary hits (48 compounds) were retested in the same assay at three concentrations (5, 10, 20 µM, n = 4) for hit confirmation and for dose-dependency check. Secondary hits (41 compounds) were checked their selectivity for Sirtuin 1 based on counterscreening on unrelated protein targets (bovine carbonic anhydrase (CA) and recombinant SH2 domain of hABL1 kinase (ABL1)) at three different concentrations (5, 10, 20 µM, n = 4), which yielded 38 hit compounds, hereafter referred to as TSA hits. The TSA screening above was conducted in the absence of NAD+.

SMILES | TSA(without NAD+) / Primary screening (TSA) / delta Tm (K)
CC(C)CC(NC(N)=O)C(=O)NC(Cc1ccccc1)c1nc2ccccc2[nH]1 (stereo not drawn) | -0.17
Cc1ccc(-c2nnc(CCC(=O)Nc3cccc(C)c3C)o2)cc1 | -0.04
COc1ccc(C=C2C(=O)NC(=S)NC2=O)c2ccccc12 | -0.15
CCOc1ccccc1/C=C1/Oc2cc(O)ccc2C1=O | 0.02
O=C1CC2(CCCCC2)CC(=O)C1=CNCC1COc2ccccc2O1 (stereo not drawn) | 0.08
O=c1[nH]cccc1O | -0.17
Cc1sc(NC(=O)N2CCN(Cc3nc(-c4ccc(Cl)cc4)no3)CC2)c(C#N)c1C | 0.12
O=C(Nc1ccccc1Oc1ccccc1)C1COc2ccccc2O1 (stereo not drawn) | -0.15
CCCOc1cccc(C2C(C(=O)c3cccs3)=C(O)C(=O)N2CCCN2CCOCC2)c1 (stereo not drawn) | 0.07
Cc1ccc(N(C)S(=O)(=O)c2cccc(C(=O)Nc3ccccc3C)c2)cc1 | 0.17
Cc1ccc(Oc2ccc(NCc3nnc(C4CCC4)o3)cc2)nn1 | -0.03
O=C([O-])CP(=O)([O-])C(=O)[O-] | -0.12
Cc1nc(C)c(C(C)NC(=O)CSC(=S)N2CCC(C)CC2)s1 (stereo not drawn) | -0.02
CCCCOCCN | -0.08
N#Cc1cnn(C(=O)C2=NOC(c3ccccc3)C2)c1N (stereo not drawn) | 0.19
Cc1nc(C(C)NC(=O)c2ccc[nH]2)sc1C(=O)O (stereo not drawn) | -0.15
Cc1ccc(-c2noc(C(C)N3CCN(c4ncnc5cc(Cl)ccc45)CC3)n2)cc1 (stereo not drawn) | -0.02
O=C(CCc1cccs1)Nc1ccc(-c2nnc3n2CCCCC3)cc1 | 0.02
NC(=O)c1ccc(NC(=O)COC(=O)CCC(=O)c2ccc(Cl)cc2)cc1 | -0.02
COc1cc(CN(C)C(=O)Cc2n[nH]c(=O)c3ccccc23)ccc1OCc1ccccc1 | -0.11
CCOc1ccc(C2C(C(=O)c3cccs3)=C(O)C(=O)N2CCCN2CCOCC2)cc1OC (stereo not drawn) | -0.17
O=C1/C(=C/c2cnn(-c3ccccc3)c2)Oc2cc(O)ccc21 | 1.25
COc1cccc(NC(=S)Nc2cccc(S(=O)(=O)N(C)c3ccccc3)c2)c1 | -0.03
O=C(NNC(=O)C12CC3CC(CC(C3)C1)C2)c1ccc(NS(=O)(=O)c2ccc3c(c2)OCCO3)cc1 | -0.12

Entries listed so far that have a thiophene ring, fused or not (four):
SMILES | TSA(without NAD+) / Primary screening (TSA) / delta Tm (K)
Cc1sc(NC(=O)N2CCN(Cc3nc(-c4ccc(Cl)cc4)no3)CC2)c(C#N)c1C | 0.12
CCCOc1cccc(C2C(C(=O)c3cccs3)=C(O)C(=O)N2CCCN2CCOCC2)c1 (stereo not drawn) | 0.07
O=C(CCc1cccs1)Nc1ccc(-c2nnc3n2CCCCC3)cc1 | 0.02
CCOc1ccc(C2C(C(=O)c3cccs3)=C(O)C(=O)N2CCCN2CCOCC2)cc1OC (stereo not drawn) | -0.17

(more compounds)

SMILES | TSA(without NAD+) / Primary screening (TSA) / delta Tm (K)
COc1ccc(C=C2C(=O)NC(=S)NC2=O)c(OC)c1 | -0.23
Cc1nc2c(C(N)=O)ncn2c(C)c1CCC(=O)Nc1ccc(F)c(C(N)=O)c1 | 0.02
COc1ccc(C(N)=O)cc1NC(=O)c1nc2nc(C)cc(C)n2n1 | -0.15
Cc1cnc2c(S(=O)(=O)N3CCN(CC(=O)Nc4ccccc4OC(F)F)CC3)cccc2c1 | -0.02
COc1cc(/C=N/NC(=O)c2cc3c(s2)CCCC3)ccc1OS(=O)(=O)c1cc(C)ccc1C | 0.32
CCCCC(NC1=NS(=O)(=O)c2ccccc21)C(=O)NCc1ccc(-c2ccc(O)cc2)cc1 (stereo not drawn) | 0.08
Nc1nc(Cl)cc(NC2CCCC2)n1 | -0.17
Cc1ccc(C23CC4CC(CC(C(=O)OCC(=O)N5c6ccccc6NC(=O)C5(C)C)(C4)C2)C3)cc1 | 0.06
O=C(O)c1ccc2c(c1)C(=O)c1ccccc1-2 | 0.02
O=C(O)CC(S)C(=O)O (stereo not drawn) | -0.11
CN(CC(=O)Nc1ccc(Cl)c(C(F)(F)F)c1)C(=O)COC(=O)Cc1coc2cc(O)ccc12 | 0.28
CC(OC(=O)c1ccc(C(N)=O)cc1)C(=O)N1CCCc2ccccc21 (stereo not drawn) | 0.02
O=C(NC(c1ccccc1)c1ccc2[nH]cnc2c1)C1=COCCO1 (stereo not drawn) | 0.03
O=C(Nc1ccccc1)C1CCCN1C(=O)Cn1c(SC(F)F)nc2ccccc21 (stereo not drawn) | -0.15
C=CCOc1ccc(C(=O)C2=C(O)C(=O)N(CCCN3CCOCC3)C2c2ccco2)cc1 (stereo not drawn) | -0.04
O=C(OCC(=O)C12CC3CC(CC(C3)C1)C2)c1ccc2c(c1)C(=O)N(Cc1ccco1)C2=O | 0.15
CCNC(=O)NCc1ccc(NC(=O)Cc2cn(CC)c3ccccc23)cc1 | -0.18
O=C(COC(=O)C1=COCCO1)Nc1cccc2c1C(=O)c1ccccc1C2=O | 0.07
NC(=O)C1CCN(c2nc(CN3CCCCC3)nc3sc4c(c23)CCC4)CC1 | 0.07
CN(C)C(=O)Cc1ccc(/N=C/c2cc3ccccc3nc2O)cc1 | -0.17
c1ccc(CNc2ncnc3ccsc23)cc1 | 0.08
COc1ccc(NC(=O)c2ccc(NC(=O)COC(=O)C34CC5CC(CC(Br)(C5)C3)C4)cc2)cc1 | 1.08
O=C(CCn1ccc2ccccc21)NCC(c1ccccc1)N1CCCC1 (stereo not drawn) | -0.13
O=C1Nc2ccccc2/C1=C\c1cn(CCOc2ccccc2)c2ccc(Br)cc12 | 0.18

SMILES | TSA(without NAD+) / Primary screening (TSA) / delta Tm (K)
O=C1Nc2c(Cl)cc(Cl)cc2C1=O | -0.58
C=C(C)CSc1nnc(S)s1 | -0.13
c1nc(N2CCCSCC2)c2sccc2n1 | -0.15
COc1cc(CN(C)C(=O)c2ccc(N3CCCC3=O)cc2)ccc1OCc1ccccc1 | 0.05
O=C(CCCn1c(=O)oc2ccccc21)Nc1cccc(S(=O)(=O)NCc2ccco2)c1 | 0.02
COc1ccc(N(C)S(=O)(=O)c2cccc(C(=O)OCc3ccc(C#N)cc3)c2)cc1 | 0.16
O=C(CCn1[nH]c(=O)ccc1=O)Nc1nc(SCc2ccccc2)ns1 | -0.12
CN(c1cccc(Cl)c1)S(=O)(=O)c1cccc(C(=O)OCc2cc(=O)oc3ccc4ccccc4c23)c1 | 0.17
COc1ccc(NC(=O)c2cccc(S(=O)(=O)N(C)c3ccc(OC)cc3)c2)cc1 | 0.03
CC(C)C(=O)N1CCCCC1C(=O)NCC1CCCN(Cc2cccs2)C1 (stereo not drawn) | 0.12
Cc1ccc2nc(C)c(C(=O)Nc3ccccc3NC(=O)N3CCCC3)cc2c1 | -0.27
O=C1NC(=O)c2cc([N+](=O)[O-])ccc21 | -0.15
Cc1cc(C(=O)CSc2nncn2-c2ccccc2)c(C)n1C1CC1 | -0.11
CCCOc1ccc(C2C(C(=O)c3cccs3)=C(O)C(=O)N2CCCN2CCOCC2)cc1 (stereo not drawn) | -0.23
CS(=O)(=O)c1ccc(C(=O)N(Cc2ccccc2)c2ccccc2)cc1 | -0.08
NCCCCCCN | 0.02
Cc1noc(CN2CCN(c3ncnc4c3oc3ccccc34)CC2)n1 | -0.33
Cc1cc(C(=O)O)ncc1C#N | -0.08
Cc1cc(C(C)NCCCO)ccc1Br (stereo not drawn) | -0.23
CC(=O)NC12CC3CC(C1)CC(C(=O)NNC(=O)COc1ccccc1Cc1ccccc1)(C3)C2 | -0.22
Cc1csc(NC(=O)c2cc(S(=O)(=O)Nc3ccccc3C)ccc2C)n1 | 0.02
O=C(CSc1nnc(-c2ccccc2)o1)N(Cc1ccccc1)c1nc2c(s1)CCCC2 | -0.17
NC(=O)c1csc(C(=O)Oc2cccc(-n3cccn3)c2)c1 | -0.14
CC(C)c1ccc(-n2cc(O)c(C(=O)N(C)CC(=O)O)n2)cc1 | -0.05

SMILES | TSA(without NAD+) / Primary screening (TSA) / delta Tm (K)
COc1ncccc1CNC(=O)CN(C)c1ncnc2nc[nH]c12 | -0.04
COc1cc(C)ccc1OCC(=O)Nc1nc2c(s1)CN(C)CC2 | -0.02
CC(C)(CNc1cccc(F)c1[N+](=O)[O-])C(N)=O | -0.17
NC(=O)c1ccc(-c2nnn(CC(=O)Nc3ccccc3N3CCCC3)n2)cc1 | -0.13
O=C(O)c1cnc2[nH]c3ccccc3n2c1=O | -0.22
COC(=O)CC(C)C(=O)NCc1c(C)nc2c(c1C)c(=O)[nH]n2C (stereo not drawn) | -0.17
O=C(c1n[nH]c(=O)c2ccccc12)N1CCCC2(CCCCCC2)C1 | -0.02
CC1CN(c2ncnc3ccsc23)CCO1 (stereo not drawn) | -0.22
C[C@H](CCO)Nc1ccc(Br)cc1C#N | -0.13
Cc1csc2c(-n3cc([N+](=O)[O-])cn3)ncnc12 | -0.22
Cc1ccc2[nH]c(-c3cccs3)c(CCC(=O)O)c2c1 | -0.23
O=C(NCc1cccc(C(=O)NCc2ccco2)c1)Nc1nnc(C2CC2)s1 | 0.06
CCC(N)c1nnn[nH]1 (stereo not drawn) | -0.02
Cc1nn(-c2cccc(C(F)(F)F)c2)c2sc(C(=O)NC3CC3)cc12 | 0.05
CN(c1ccccc1)S(=O)(=O)c1cccc(NC(=O)CCCc2c[nH]c3ccccc23)c1 | 0.52
O=c1oc2ccc3ccccc3c2cc1-c1cn(-c2ccc(Br)cc2)c(S)n1 | -0.12
COC(=O)C[C@@H](C)OC(=O)c1ccc(F)cc1F | 0.02
FC(F)(F)c1nnc2ccc(NCC3CCOC3)nn12 (stereo not drawn) | -0.02
N#CCCn1cc(/C=C/C(=O)NC2CC2c2cccc(F)c2)c2ccccc21 (stereo not drawn) | -0.04
c1ccc(-c2cn(-c3nc(-c4cccnc4)nc4ccccc34)cn2)cc1 | -0.11
O=C(NC1CCOc2ccccc21)c1ccc2c(c1)NC(=O)C1CCCN21 (stereo not drawn) | -0.48
